PubChem BioAssay AID1259308, NCATS – 2017

- Aim: 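Candidate targets for better recombinant protein yield in mammalian cells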 (primary screen)
- Cell system: human HEK293 embryonic kidney cells stably expressing firefly luciferase (HEK-CMV-Luc2-Hygro)
- Reagent: single siRNA against human genes, 0.8 pmol siRNA per well
- Timing: 72 h
- Detection: 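Reporter luminescence and viable-cell signal on separate replicate plates, given as percent of non-targeting control and median/MAD z-scores, plus per-cell luciferase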
- Direction: total luciferase, z-score and total luciferase, % of control: higher = more reporter protein produced
- Rule for the call: 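An siRNA counts as active if its total luciferase robust z-score exceeds 3; genes with two or more such siRNAs out of three were retested with fresh siRNAs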
- Calls: active = raised luciferase; inactive = no rise
This is one part, drawn at random, of about 59,000 reagents tested. About 1,510 of all reagents (2.6%) were called active. 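Calls use total luciferase alone and ignore viability, so some active siRNAs may act by altering cell number.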 The numbers tell different reagents against one gene apart. Further read-outs or replicates are left out here.

no.	gene knocked down	reagent no.	total luciferase, z-score	total luciferase, % of control	activity call
1	ADAM20	1	-0.605	69.9	inactive
2	ADAM20	2	-0.991	62.2	inactive
3	ADAM20	3	-0.853	64.9	inactive
4	TBX4	1	1.63	114	inactive
5	TBX4	2	0.88	99.4	inactive
6	TBX4	3	-0.752	66.9	inactive
7	OR56A5	1	1.63	114	inactive
8	OR56A5	2	0.467	91.2	inactive
9	OR56A5	3	-0.24	77.1	inactive
10	TIMM8A	1	0.101	83.9	inactive
11	TIMM8A	2	1.38	109	inactive
12	TIMM8A	3	0.529	92.4	inactive
13	FOXN2	1	0.102	83.9	inactive
14	FOXN2	2	0.288	87.6	inactive
15	FOXN2	3	-1.6	50	inactive
16	C19orf12	1	0.557	93	inactive
17	C19orf12	2	0.133	84.5	inactive
18	C19orf12	3	-1.59	50.2	inactive
19	SATB1	1	1.09	103	inactive
20	SATB1	2	-0.558	70.8	inactive
21	SATB1	3	0.104	84	inactive
22	TTC7B	1	-0.518	71.6	inactive
23	TTC7B	2	-0.524	71.5	inactive
24	TTC7B	3	-0.262	76.7	inactive
25	TMEM106A	1	1.94	121	inactive
26	TMEM106A	2	-2.49	32.3	inactive
27	TMEM106A	3	0.657	95	inactive
28	PDXK	1	1.79	118	inactive
29	PDXK	2	-0.931	63.4	inactive
30	PDXK	3	-1.39	54.3	inactive
31	CBLB	1	0.347	88.8	inactive
32	CBLB	2	2.01	122	inactive
33	CBLB	3	-0.19	78.1	inactive
34	ZNF263	1	-1.04	61.3	inactive
35	ZNF263	2	-1.34	55.3	inactive
36	ZNF263	3	1.6	114	inactive
37	NOTO	1	-1.58	50.4	inactive
38	NOTO	2	0.622	94.3	inactive
39	NOTO	3	-0.672	68.5	inactive
40	ANGPTL5	1	0.268	87.2	inactive
41	ANGPTL5	2	-0.579	70.4	inactive
42	ANGPTL5	3	-0.825	65.5	inactive
43	CYP11B2	1	-0.493	72.1	inactive
44	CYP11B2	2	1.63	114	inactive
45	CYP11B2	3	-1.32	55.7	inactive
46	NDNF	1	-0.0441	81	inactive
47	NDNF	2	-0.709	67.8	inactive
48	NDNF	3	-0.895	64.1	inactive
49	SCARA3	1	-0.638	69.2	inactive
50	SCARA3	2	-0.617	69.6	inactive
51	SCARA3	3	-0.307	75.8	inactive
52	LHFPL3	1	-1.42	53.7	inactive
53	LHFPL3	2	0.449	90.8	inactive
54	LHFPL3	3	-0.772	66.5	inactive
55	ALDH16A1	1	0.88	99.4	inactive
56	ALDH16A1	2	-0.853	64.9	inactive
57	ALDH16A1	3	-0.984	62.3	inactive

Not a retest: an excerpt of the list.
no.	gene knocked down	reagent no.	total luciferase, z-score	total luciferase, % of control	activity call
49	SCARA3	1	-0.638	69.2	inactive
50	SCARA3	2	-0.617	69.6	inactive
51	SCARA3	3	-0.307	75.8	inactive
52	LHFPL3	1	-1.42	53.7	inactive
53	LHFPL3	2	0.449	90.8	inactive
